# Experimental data reported in the supplement of paper PMC8728848.
# The other results are listed elsewhere or left out.
# Assays:
# Assay in all cases: glycan array binding signal (z-score within array); higher = stronger binding
# Details in all cases: glycan notation: IUPAC condensed, linker removed
# [1] = target: Neu5Ac(a2-3)Gal(b1-4)GlcNAc(b1-2)[Neu5Ac(a2-3)Gal(b1-4)GlcNAc(b1-4)]Man(a1-3)[GlcNAc(b1-4)][Neu5Ac(a2-3)Gal(b1-4)GlcNAc(b1-4)Man(a1-6)]Man(b1-4)GlcNAc(b1-4)GlcNAc
# Procedure, shortened: (§1)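 Negative Z-scores can be read as non-binding. The Z-score is calculated within each array and then averaged across arrays of one protein sequence at different concentrations or buffers and across linkers. Arrays, 3228 in all, were curated from the Consortium for Functional Glycomics database and kept only where the protein sequence was available.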
# [2] = target: Neu5Ac(a2-3)Gal(b1-4)GlcNAc(b1-2)[Neu5Ac(a2-3)Gal(b1-4)GlcNAc(b1-6)]Man(a1-6)[Neu5Ac(a2-3)Gal(b1-4)GlcNAc(b1-2)Man(a1-3)]Man(b1-4)GlcNAc(b1-4)GlcNAc
# Procedure, shortened: as §1
# [3] = target: Neu5Ac(a2-3)Gal(b1-4)GlcNAc(b1-2)[Neu5Ac(a2-3)Gal(b1-4)GlcNAc(b1-6)]Man(a1-6)[Neu5Ac(a2-3)Gal(b1-4)GlcNAc(b1-2)Man(a1-3)][GlcNAc(b1-4)]Man(b1-4)GlcNAc(b1-4)GlcNAc
# Procedure, shortened: as §1
# [4] = target: Neu5Ac(a2-3)Gal(b1-4)GlcNAc(b1-3)Gal
# Procedure, shortened: as §1
# [5] = target: Neu5Ac(a2-3)Gal(b1-4)GlcNAc(b1-3)Gal(b1-3)GlcNAc
# Procedure, shortened: as §1
# [6] = target: Neu5Ac(a2-3)Gal(b1-4)GlcNAc(b1-3)Gal(b1-4)GlcNAc
# Procedure, shortened: as §1
# [7] = target: Neu5Ac(a2-3)Gal(b1-4)GlcNAc(b1-3)Gal(b1-4)GlcNAc(b1-2)Man(a1-3)[Neu5Ac(a2-3)Gal(b1-4)GlcNAc(b1-3)Gal(b1-4)GlcNAc(b1-2)Man(a1-6)]Man(b1-4)GlcNAc(b1-4)GlcNAc
# Procedure, shortened: as §1
# [8] = target: Neu5Ac(a2-3)Gal(b1-4)GlcNAc(b1-3)Gal(b1-4)GlcNAc(b1-3)Gal(b1-4)GlcNAc
# Procedure, shortened: as §1
# [9] = target: Neu5Ac(a2-3)Gal(b1-4)GlcNAc(b1-3)Gal(b1-4)GlcNAc(b1-3)Gal(b1-4)GlcNAc(b1-2)Man(a1-3)[Neu5Ac(a2-3)Gal(b1-4)GlcNAc(b1-3)Gal(b1-4)GlcNAc(b1-3)Gal(b1-4)GlcNAc(b1-2)Man(a1-6)]GalNAc
# Procedure, shortened: as §1
# [10] = target: Neu5Ac(a2-3)Gal(b1-4)GlcNAc(b1-3)Gal(b1-4)GlcNAc(b1-3)GalNAc
# Procedure, shortened: as §1
# [11] = target: Neu5Ac(a2-3)Gal(b1-4)GlcNAc(b1-3)Gal(b1-4)GlcNAc(b1-3)[Neu5Ac(a2-3)Gal(b1-4)GlcNAc(b1-3)Gal(b1-4)GlcNAc(b1-6)]GalNAc
# Procedure, shortened: as §1
# [12] = target: Neu5Ac(a2-3)Gal(b1-4)GlcNAc(b1-3)Gal(b1-4)GlcNAc(b1-6)[Gal(b1-3)]GalNAc
# Procedure, shortened: as §1
# [13] = target: Neu5Ac(a2-3)Gal(b1-4)GlcNAc(b1-3)Gal(b1-4)[Fuc(a1-3)]GlcNAc
# Procedure, shortened: as §1
# [14] = target: Neu5Ac(a2-3)Gal(b1-4)GlcNAc(b1-3)GalNAc
# Procedure, shortened: as §1
# [15] = target: Neu5Ac(a2-3)Gal(b1-4)GlcNAc(b1-3)[Neu5Ac(a2-3)Gal(b1-4)GlcNAc(b1-6)]GalNAc
# Procedure, shortened: as §1
# [16] = target: Neu5Ac(a2-3)Gal(b1-4)GlcNAc(b1-6)GalNAc
# Procedure, shortened: as §1
# [17] = target: Neu5Ac(a2-3)Gal(b1-4)GlcNAc(b1-6)[Gal(b1-3)]GalNAc
# Procedure, shortened: as §1
# [18] = target: Neu5Ac(a2-3)Gal(b1-4)GlcNAc(b1-6)[Neu5Ac(a2-3)Gal(b1-3)]GalNAc
# Procedure, shortened: as §1
# [19] = target: Neu5Ac(a2-3)Gal(b1-4)GlcNAc6S
# Procedure, shortened: as §1
# [20] = target: Neu5Ac(a2-3)Gal(b1-4)[Fuc(a1-3)]GlcNAc
# Procedure, shortened: as §1
# [21] = target: Neu5Ac(a2-3)Gal(b1-4)[Fuc(a1-3)]GlcNAc(b1-2)Man
# Procedure, shortened: as §1
# [22] = target: Neu5Ac(a2-3)Gal(b1-4)[Fuc(a1-3)]GlcNAc(b1-3)Gal
# Procedure, shortened: as §1
# [23] = target: Neu5Ac(a2-3)Gal(b1-4)[Fuc(a1-3)]GlcNAc(b1-3)Gal(b1-4)GlcNAc
# Procedure, shortened: as §1
# [24] = target: Neu5Ac(a2-3)Gal(b1-4)[Fuc(a1-3)]GlcNAc(b1-3)Gal(b1-4)[Fuc(a1-3)]GlcNAc(b1-3)Gal(b1-4)[Fuc(a1-3)]GlcNAc
# Procedure, shortened: as §1
# [25] = target: Neu5Ac(a2-3)Gal(b1-4)[Fuc(a1-3)]GlcNAc(b1-3)GalNAc
# Procedure, shortened: as §1
# [26] = target: Neu5Ac(a2-3)Gal(b1-4)[Fuc(a1-3)]GlcNAc(b1-6)[Gal(b1-3)]GalNAc
# Procedure, shortened: as §1
# [27] = target: Neu5Ac(a2-3)Gal(b1-4)[Fuc(a1-3)]GlcNAc(b1-6)[Neu5Ac(a2-3)Gal(b1-3)]GalNAc
# Procedure, shortened: as §1
# [28] = target: Neu5Ac(a2-3)Gal(b1-4)[Fuc(a1-3)]GlcNAc6S
# Procedure, shortened: as §1
# [29] = target: Neu5Ac(a2-3)Gal6S(b1-4)GlcNAc
# Procedure, shortened: as §1
# [30] = target: Neu5Ac(a2-3)Gal6S(b1-4)[Fuc(a1-3)]GlcNAc
# Procedure, shortened: as §1
# Neu5Ac(a2-3)GalNAc = target: Neu5Ac(a2-3)GalNAc
# Procedure, shortened: as §1
# [31] = target: Neu5Ac(a2-3)GalNAc(b1-4)GlcNAc
# Procedure, shortened: as §1
# [32] = target: Neu5Ac(a2-3)[GalNAc(b1-4)]Gal(b1-4)Glc
# Procedure, shortened: as §1
# [33] = target: Neu5Ac(a2-3)[GalNAc(b1-4)]Gal(b1-4)GlcNAc
# Procedure, shortened: as §1
# [34] = target: Neu5Ac(a2-3)[GalNAc(b1-4)]Gal(b1-4)GlcNAc(b1-3)GalNAc
# Procedure, shortened: as §1
# [35] = target: Neu5Ac(a2-3)[Neu5Ac(a2-6)]GalNAc
# Procedure, shortened: as §1
# Neu5Ac(a2-6)Gal = target: Neu5Ac(a2-6)Gal
# Procedure, shortened: as §1
# [36] = target: Neu5Ac(a2-6)Gal(b1-3)GlcNAc(b1-3)[Gal(b1-4)GlcNAc(b1-6)]Gal(b1-4)Glc
# Procedure, shortened: as §1
# Neu5Ac(a2-6)Gal(b1-4)Glc = target: Neu5Ac(a2-6)Gal(b1-4)Glc
# Procedure, shortened: as §1
# [37] = target: Neu5Ac(a2-6)Gal(b1-4)GlcNAc
# Procedure, shortened: as §1
# [38] = target: Neu5Ac(a2-6)Gal(b1-4)GlcNAc(b1-2)Man
# Procedure, shortened: as §1
# [39] = target: Neu5Ac(a2-6)Gal(b1-4)GlcNAc(b1-2)Man(a1-3)Man(b1-4)GlcNAc(b1-4)GlcNAc
# Procedure, shortened: as §1
# [40] = target: Neu5Ac(a2-6)Gal(b1-4)GlcNAc(b1-2)Man(a1-3)[Gal(b1-4)GlcNAc(b1-2)Man(a1-6)]Man(b1-4)GlcNAc(b1-4)GlcNAc
# Procedure, shortened: as §1
# [41] = target: Neu5Ac(a2-6)Gal(b1-4)GlcNAc(b1-2)Man(a1-3)[GlcNAc(b1-2)Man(a1-6)]Man(b1-4)GlcNAc(b1-4)GlcNAc
# Procedure, shortened: as §1
# [42] = target: Neu5Ac(a2-6)Gal(b1-4)GlcNAc(b1-2)Man(a1-3)[GlcNAc(b1-4)][Neu5Ac(a2-6)Gal(b1-4)GlcNAc(b1-2)Man(a1-6)]Man(b1-4)GlcNAc(b1-4)GlcNAc
# Procedure, shortened: as §1
binder,measurement,setting,value
pilr alpha (protein) MLYGVTQPKHLSASMGGSVEIPFSFYYPWELATAPDVRISWRRGHFHRQSFYSTRPPSIHKDYVNRLFLNWTEGQKSGFLRISNLQKQDQSVYFCRVELDTRSSGRQQWQSIEGTKLSIT,glycan array binding signal (z-score),[1],-0.4
same,glycan array binding signal (z-score),[2],-0.299
same,glycan array binding signal (z-score),[3],-0.41
same,glycan array binding signal (z-score),[4],-0.61
same,glycan array binding signal (z-score),[5],-0.35
same,glycan array binding signal (z-score),[6],-0.155
same,glycan array binding signal (z-score),[7],0.102
same,glycan array binding signal (z-score),[8],-0.173
same,glycan array binding signal (z-score),[9],0.331
same,glycan array binding signal (z-score),[10],-0.77
same,glycan array binding signal (z-score),[11],-0.575
same,glycan array binding signal (z-score),[12],0.592
same,glycan array binding signal (z-score),[13],-0.384
same,glycan array binding signal (z-score),[14],-0.111
same,glycan array binding signal (z-score),[15],-0.347
same,glycan array binding signal (z-score),[16],-0.452
same,glycan array binding signal (z-score),[17],-0.533
same,glycan array binding signal (z-score),[18],-0.642
same,glycan array binding signal (z-score),[19],-0.654
same,glycan array binding signal (z-score),[20],-0.287
same,glycan array binding signal (z-score),[21],-0.097
same,glycan array binding signal (z-score),[22],-0.142
same,glycan array binding signal (z-score),[23],0.457
same,glycan array binding signal (z-score),[24],1.01
same,glycan array binding signal (z-score),[25],1.59
same,glycan array binding signal (z-score),[26],0.534
same,glycan array binding signal (z-score),[27],-0.1
same,glycan array binding signal (z-score),[28],0.643
same,glycan array binding signal (z-score),[29],-0.007
same,glycan array binding signal (z-score),[30],-0.395
same,glycan array binding signal (z-score),Neu5Ac(a2-3)GalNAc,-0.569
same,glycan array binding signal (z-score),[31],0.102
same,glycan array binding signal (z-score),[32],0.89
same,glycan array binding signal (z-score),[33],-0.65
same,glycan array binding signal (z-score),[34],0.118
same,glycan array binding signal (z-score),[35],-0.023
same,glycan array binding signal (z-score),Neu5Ac(a2-6)Gal,-0.339
same,glycan array binding signal (z-score),[36],-0.49
same,glycan array binding signal (z-score),Neu5Ac(a2-6)Gal(b1-4)Glc,0.137
same,glycan array binding signal (z-score),[37],-0.299
same,glycan array binding signal (z-score),[38],-0.586
same,glycan array binding signal (z-score),[39],-0.545
same,glycan array binding signal (z-score),[40],-0.165
same,glycan array binding signal (z-score),[41],-0.363
same,glycan array binding signal (z-score),[42],-0.429
